Results deposited as PubChem BioAssay AID504764 (Drosophila RNAi Screening Center, 2011).

Purpose: 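Genome-wide screen for regulators of Notch-driven gene expression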 (primary screen)
Cells: Drosophila Kc167 cells
Reagent: long dsRNA against Drosophila genes
Timing: about 5 days (4 days dsRNA, then 24 h after transfection)
Treatment: transfection of constitutively active membrane-tethered Notch lacking the extracellular domain, read 24 h later
Read-out: 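Light from a Notch-responsive E(spl)m3 luciferase reporter under active Notch, with control-promoter and no-Notch reporter wells to normalise; raw counts from paired wells a and b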
Direction: induced reporter light, run 1, well a and induced reporter light, run 1, well b: higher = more light from the Notch target reporter with active Notch; control promoter light, run 1, well a and control promoter light, run 1, well b: higher = more light from the viral control promoter (cell number, transfection, viability); uninduced reporter light, run 1, well a: higher = more light from the Notch target reporter without active Notch
Rule for the call: 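Wells with low control signal or poorly matching duplicates excluded; duplicates averaged; per source plate, z beyond ±2 for induced/control log2 ratio or beyond ±1.8 for induced/uninduced marks a hit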
Meaning of the calls: active = modifier hit (raised or lowered Notch signal); inactive = not a hit
In all, the deposit lists about 22,000 reagents; this is an unselected part of those with a known target gene and a result. Over the whole deposit, 403 (1.9%) got an active call. 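Unnormalised raw counts per well; ratio z-scores behind the hit calls and whether each hit raises or lowers signal are not deposited.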 Unmarked entries are inactive. The record does not give: the amount of reagent.

With knock-down of CG31265 [DRSC15745], the record shows induced reporter light, run 1, well a = 2.27e5; induced reporter light, run 1, well b = 2.35e5; control promoter light, run 1, well a = 2.58e5; control promoter light, run 1, well b = 2.61e5; uninduced reporter light, run 1, well a = 20260.
For CG31183 [DRSC14403], the entry reads induced reporter light, run 1, well a = 2.17e5; induced reporter light, run 1, well b = 1.96e5; control promoter light, run 1, well a = 2.18e5; control promoter light, run 1, well b = 2.06e5; uninduced reporter light, run 1, well a = 18290.
CG31183 [DRSC15554] showed induced reporter light, run 1, well a = 2.45e5; induced reporter light, run 1, well b = 2.42e5; control promoter light, run 1, well a = 3.02e5; control promoter light, run 1, well b = 3.35e5; uninduced reporter light, run 1, well a = 18280.
Against CG9281 [DRSC20179] the deposit lists induced reporter light, run 1, well a = 1.35e5; induced reporter light, run 1, well b = 1.25e5; control promoter light, run 1, well a = 1.51e5; control promoter light, run 1, well b = 1.39e5; uninduced reporter light, run 1, well a = 11465.
Ir41a [DRSC04730] gave induced reporter light, run 1, well a = 1.85e5; induced reporter light, run 1, well b = 2.07e5; control promoter light, run 1, well a = 2.40e5; control promoter light, run 1, well b = 2.55e5; uninduced reporter light, run 1, well a = 12292.
After knock-down of Ir41a [DRSC04875], the record shows induced reporter light, run 1, well a = 1.70e5; induced reporter light, run 1, well b = 1.62e5; control promoter light, run 1, well a = 1.56e5; control promoter light, run 1, well b = 1.49e5; uninduced reporter light, run 1, well a = 10735.
Against MED10 [DRSC10474] the deposit lists induced reporter light, run 1, well a = 1.82e5; induced reporter light, run 1, well b = 1.42e5; control promoter light, run 1, well a = 1.61e5; control promoter light, run 1, well b = 2.01e5; uninduced reporter light, run 1, well a = 9765.
For SmB [DRSC03437], the entry reads induced reporter light, run 1, well a = 49015; induced reporter light, run 1, well b = 37475; control promoter light, run 1, well a = 38795; control promoter light, run 1, well b = 35905; uninduced reporter light, run 1, well a = 2975.
After knock-down of CG11858 [DRSC14412], the record shows induced reporter light, run 1, well a = 1.63e5; induced reporter light, run 1, well b = 1.84e5; control promoter light, run 1, well a = 2.54e5; control promoter light, run 1, well b = 2.62e5; uninduced reporter light, run 1, well a = 15075.
Knock-down of CG3036 [DRSC00260] came out at: induced reporter light, run 1, well a = 1.04e5; induced reporter light, run 1, well b = 98080; control promoter light, run 1, well a = 1.36e5; control promoter light, run 1, well b = 1.65e5; uninduced reporter light, run 1, well a = 8515.
CG3036 [DRSC00562] showed induced reporter light, run 1, well a = 1.86e5; induced reporter light, run 1, well b = 1.84e5; control promoter light, run 1, well a = 2.02e5; control promoter light, run 1, well b = 1.94e5; uninduced reporter light, run 1, well a = 15895.
Against CG14855 [DRSC14979] the deposit lists induced reporter light, run 1, well a = 2.07e5; induced reporter light, run 1, well b = 2.00e5; control promoter light, run 1, well a = 1.70e5; control promoter light, run 1, well b = 1.44e5; uninduced reporter light, run 1, well a = 15150.
Against CG9578 [DRSC20694], the values are induced reporter light, run 1, well a = 1.29e5; induced reporter light, run 1, well b = 1.42e5; control promoter light, run 1, well a = 1.01e5; control promoter light, run 1, well b = 61205; uninduced reporter light, run 1, well a = 9050.
CG12523 [DRSC09895] showed induced reporter light, run 1, well a = 37110; induced reporter light, run 1, well b = 53170; control promoter light, run 1, well a = 69805; control promoter light, run 1, well b = 67110; uninduced reporter light, run 1, well a = 950.
Silencing of CG13385 [DRSC02259] gave: induced reporter light, run 1, well a = 1.56e5; induced reporter light, run 1, well b = 1.78e5; control promoter light, run 1, well a = 87835; control promoter light, run 1, well b = 1.18e5; uninduced reporter light, run 1, well a = 19370.
RpL14 [DRSC11269] gave induced reporter light, run 1, well a = 10020; induced reporter light, run 1, well b = 10195; control promoter light, run 1, well a = 13865; control promoter light, run 1, well b = 14850; uninduced reporter light, run 1, well a = 700.
CG9447 [DRSC05008] showed induced reporter light, run 1, well a = 2.09e5; induced reporter light, run 1, well b = 1.77e5; control promoter light, run 1, well a = 2.58e5; control promoter light, run 1, well b = 2.33e5; uninduced reporter light, run 1, well a = 15030.
With knock-down of CG13575 [DRSC04211] the results were induced reporter light, run 1, well a = 1.66e5; induced reporter light, run 1, well b = 1.54e5; control promoter light, run 1, well a = 1.70e5; control promoter light, run 1, well b = 1.62e5; uninduced reporter light, run 1, well a = 12990.

As entered above:
For “uninduced reporter light, run 1, well a”, CG9281 [DRSC20179] has 11465
For “control promoter light, run 1, well b”, CG11858 [DRSC14412] has 2.62e5
